# PubChem BioAssay AID445 (National Center for Advancing Translational Sciences (NCATS), 2006)
# Some of the results follow. These are further read-outs of the screen, such as a control signal, another cell line or another target. No call is given for them. The list favours compounds with an active or inconclusive main result. The note in brackets gives the kind of curve behind each potency; many fits are weak.
# Assay: IkB Signaling
# Details: ABC-DLBCL IkBa-CBG/CBR dual luciferase ratio (green luciferase fused to IkBa over red control in OCI-Ly3 lymphoma cells), 4 h
# Summary of the method: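 In this assay, an IκBα–CBG68 fusion accumulates when IKK-driven degradation is blocked; native CBR normalizes for cell number. OCI-Ly3 cells were treated 4 h with compound and doxycycline, then green and red light read after Chroma-Glo addition.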
# [1] = measured here: control luc red channel unless noted
# [2] = measured here: IkB-luc green channel
# [3] = measured here: control luc red channel
smiles,measurement,setting,value
CCOC(=O)c1ccc(N2C(=O)c3n[nH]c(-c4cccs4)c3C2c2cccc(O)c2)cc1 (stereo not drawn),AC50,[1],"12.6 µM [falling, partial curve]"
COc1ccc(N2CCN(C(=O)CCCCn3c(=O)[nH]c4ccsc4c3=O)CC2)cc1,AC50,[1],"10 µM [falling, partial curve]"
CC(C)c1ccc(CNC(=O)c2ccc(N3CCCC3)c(NC(=O)NCc3ccc(F)cc3)c2)cc1,AC50,[1],"7.94 µM [falling, partial curve]"
COC(=O)c1c(SCC(=O)Nc2ccccc2C(F)(F)F)[nH]c2ccc(Cl)cc2c1=O,AC50,[1],"3.98 µM [falling, full curve]"
C=CCn1c2ccccc2c2nnc(SCCCn3c(=O)[nH]c4ccccc43)nc21,AC50,[2],"5.01 µM [falling, partial curve]"
same,AC50,[3],"3.98 µM [falling, full curve]"
COC(=O)c1cccc(NC(=O)NC2CCCN2S(=O)(=O)c2ccc(Cl)cc2)c1 (stereo not drawn),AC50,[1],"15.8 µM [falling, partial curve]"
CC(=O)c1ccc(NC(=O)CSc2nnc3c(n2)[nH]c2ccccc23)cc1,AC50,[1],"15.8 µM [falling, partial curve]"
COc1ccccc1N1CCN(C(=O)CCc2ccc(S(=O)(=O)NC(C)C)cc2)CC1,AC50,[1],"31.6 µM [falling, partial curve]"
CC1=C(C(=O)Nc2ccc(C)cc2C)C(c2cccs2)n2nc(SCc3ccc(Cl)cc3)nc2N1 (stereo not drawn),AC50,[1],"2.51 µM [falling, full curve, poor fit]"
CC(=O)c1ccc(NC(=O)CC2Sc3ccccc3NC2=O)cc1 (stereo not drawn),AC50,[1],"39.8 µM [falling, single point]"
COc1ccc(-c2csc3ncnc(Nc4cccc(F)c4)c23)cc1,AC50,[1],"31.6 µM [falling, single point]"
Cc1cc(Oc2nc3ccccn3c(=O)c2/C=C(\C#N)c2nc3ccccc3s2)ccc1Cl,AC50,[2],"31.6 µM [rising, single point]"
same,AC50,[3],"2 µM [falling, full curve]"
Cc1ccc(NC(=O)C2CCN(C(=O)c3cnn(-c4ccccc4)c3-n3cccc3)CC2)cc1Cl,AC50,[1],"12.6 µM [falling, partial curve]"
COc1cc2cc(CN(C(=O)Nc3ccccc3)C3CCCC3)c(=O)[nH]c2cc1OC,AC50,[1],"10 µM [falling, partial curve]"
CCCCOc1ccccc1NC(=O)c1ccco1,AC50,[1],"25.1 µM [falling, partial curve]"
Cc1ccc(Cl)cc1NC(=O)C(NS(=O)(=O)c1ccc2c(c1)CCC(=O)N2)c1ccccc1 (stereo not drawn),AC50,[1],"15.8 µM [falling, partial curve]"
CCc1ccc(NCc2cc3cc(OC)c(OC)cc3n(CC(=O)Nc3ccc(F)cc3)c2=O)cc1,AC50,[1],"12.6 µM [falling, partial curve]"
CC(C)(C)C(=O)Nc1ccc2nc(SCc3ccccc3)sc2c1,AC50,[1],"25.1 µM [falling, partial curve]"
COc1ccc(C(=O)n2c(-c3ccco3)nc3ccccc32)cc1,AC50,[1],"39.8 µM [falling, single point]"
Cc1ccccc1C(=O)NC(=O)Nc1ccc(-n2nc(C(F)(F)F)cc2C(F)(F)F)cc1,AC50,[1],"10 µM [rising, partial curve]"
CC(C)c1ccc(NC(=O)C(Cc2ccccc2)n2cccc2)cc1 (stereo not drawn),AC50,[1],"39.8 µM [falling, single point]"
CCCc1cc(=O)n2[nH]c(-c3ccc(Br)cc3)cc2n1,AC50,[1],"5.01 µM [falling, partial curve]"
CC(=O)Nc1nonc1-c1nnc(SCC(=O)Nc2c(C)cccc2C)n1-c1ccccc1,AC50,[1],"15.8 µM [falling, single point]"
CCn1cc(C(=O)NCc2ccc(Cl)cc2)c(=O)c2cc(S(=O)(=O)N3CCc4ccccc4C3)ccc21,AC50,[1],"3.98 µM [falling, partial curve]"
CCCCC12CN3CC(C)(CN(C1)C3c1ccc(OCc3ccccc3)cc1)C2=O (stereo not drawn),AC50,[1],"20 µM [falling, partial curve]"
O=C(C1CCN(S(=O)(=O)c2cccs2)CC1)N1CCN(c2ccccc2F)CC1,AC50,[1],"20 µM [falling, single point]"
O=C(CCCCCn1c(=O)[nH]c2ccccc2c1=O)N1CCN(c2cccc(C(F)(F)F)c2)CC1,AC50,[1],"39.8 µM [falling, single point]"
C[C@H](NC(=O)/C(C#N)=C/c1ccc(O)c(O)c1)c1ccccc1,AC50,[1],"39.8 µM [falling, single point]"
FC(F)(F)c1cccc(Nc2nc3nonc3nc2Nc2ccc(Cl)cc2)c1,AC50,[1],"0.126 µM [falling, full curve]"
CCC(CC)C(=O)Nc1ccc(S(=O)(=O)N2CCC(c3nc4ccccc4s3)CC2)cc1,AC50,[1],"20 µM [falling, single point]"
Cc1nc(-c2ccc(S(=O)(=O)N3CCN(c4ccccc4F)CC3)cc2)co1,AC50,[1],"31.6 µM [falling, partial curve]"
CCN(C(=O)Cn1c(C(=O)OC)cc2sccc21)c1cccc(C)c1,AC50,[1],"39.8 µM [falling, partial curve, poor fit]"
CC(C)NC(=O)c1ccc(CSc2nc3ccncc3n2Cc2cccc(F)c2)cc1,AC50,[1],"15.8 µM [falling, single point]"
CCCCN(CCCC)CCCNC(=O)c1cc(-c2ccc(Cl)s2)nc2ccccc12,AC50,[1],"10 µM [falling, partial curve]"
CC(C)c1ccc(C2CC(=O)N3CN(C4CCCCC4)CSC3=C2C#N)cc1 (stereo not drawn),AC50,[1],"15.8 µM [falling, single point]"
Cn1ccc2cc(S(=O)(=O)N3CCCC(C(=O)NCc4ccccc4F)C3)ccc21 (stereo not drawn),AC50,[1],"5.01 µM [falling, partial curve]"
CC1=C(C(=O)Nc2ccccc2)C(c2ccc(Br)cc2)n2nc(CCCO)nc2N1 (stereo not drawn),AC50,[1],"20 µM [falling, single point]"
CCCc1cc(=O)[nH]c(Nc2cc(Cl)cc(Cl)c2)n1,AC50,[1],"3.16 µM [falling, full curve]"
O=C(O)c1ccc(/C=N\N=C2c3ccccc3-c3ccccc32)cc1,AC50,[1],"0.0251 µM [falling, full curve]"
COc1ccccc1N1CCN(C(=O)c2nn(C)c3c2CS(=O)(=O)c2ccccc2-3)CC1,AC50,[1],"6.31 µM [falling, partial curve]"
CCn1cc2nc(SCc3cc(C)ccc3C)n(Cc3ccc(Cl)cc3)c(=O)c2n1,AC50,[1],"5.01 µM [falling, full curve]"
Cc1nn(Cc2ccc(F)cc2)c(C)c1NC(=O)c1noc2c1CCc1ccccc1-2,AC50,[1],"31.6 µM [rising, partial curve] [measured here: IkB-luc green channel]"
CCOC(=O)c1ccc(NC(=O)Cc2noc3ccc(C)cc23)cc1,AC50,[1],"1.58 µM [falling, full curve]"
Cn1cc(S(=O)(=O)N2CCCC2)cc1C(=O)Nc1ccc(F)cc1F,AC50,[1],"15.8 µM [falling, single point]"
CC(C)CCNC(=O)c1cc(-c2cccnc2)nc2ccc(S(=O)(=O)N3CCC(C)CC3)cc12,AC50,[1],"1 µM [rising, full curve]"
CCCn1c(SCC(=O)Nc2cccc(C(=O)OCC)c2)nnc1-c1ccoc1C,AC50,[1],"39.8 µM [falling, single point]"
Cc1cccc(-n2c3nc(=O)[nH]c(=O)c-3cc3ccc(Cl)cc32)c1C,AC50,[1],"10 µM [falling, partial curve]"
CCOC(=O)CC(NC(=O)Cn1nnc(-c2ccc(Cl)cc2)n1)c1ccc(OC)cc1 (stereo not drawn),AC50,[1],"20 µM [falling, single point]"
COc1cc(OC)c(NC(=O)c2ccc(-n3cnc4cccnc43)cc2)cc1Cl,AC50,[1],"3.98 µM [falling, full curve, poor fit]"
CC(=O)Nc1cccc(NC(=O)CSc2nccn2Cc2ccccc2)c1,AC50,[1],"15.8 µM [falling, single point]"
CC(=O)c1cccc(NC(=O)Cn2ccn3nc(-c4ccccc4)cc3c2=O)c1,AC50,[1],"20 µM [falling, partial curve, poor fit]"
N#CCSc1nc2c(c(C3CC=CCC3)c1C#N)CCC2 (stereo not drawn),AC50,[1],"6.31 µM [rising, single point] [measured here: IkB-luc green channel]"
COc1ccc(OCCCn2c(C3CC(=O)N(c4ccc(F)cc4)C3)nc3ccccc32)cc1 (stereo not drawn),AC50,[1],"25.1 µM [falling, partial curve]"
Cc1nn(Cc2ccccc2)c2sc(C(=O)N3CCN(Cc4ccc5c(c4)OCO5)CC3)cc12,AC50,[1],"31.6 µM [falling, partial curve]"
COc1ccc(OC)c(NC(=O)c2cc3cccc(OC)c3oc2=O)c1,AC50,[1],"0.316 µM [falling, full curve]"
Cc1ccc(-c2nc3cccc(C)n3c2Nc2ccc3c(c2)OCO3)o1,AC50,[1],"20 µM [falling, partial curve]"
Cc1ccc2nc(-c3ccc(SCC(=O)Nc4cc(C)on4)nc3)[nH]c2c1,AC50,[1],"5.01 µM [falling, partial curve]"
CCOc1ccccc1C(=O)N1CCc2cc(OC)c(OC)cc2C1COc1ccc(OC)cc1 (stereo not drawn),AC50,[1],"39.8 µM [falling, partial curve]"
Cc1nn(-c2ccccc2)c(OC(=O)c2ccc(Cl)cc2)c1S(=O)(=O)c1ccccc1,AC50,[1],"0.316 µM [falling, full curve, poor fit]"
COc1ccc(CNS(=O)(=O)c2cc3c(cc2Cl)NC(=O)CO3)cc1,AC50,[1],"15.8 µM [falling, partial curve]"
COc1ccccc1N=c1oc2cc(O)ccc2cc1C(N)=O,AC50,[1],"0.158 µM [falling, full curve]"

# Exported bar-delimited: part of the list above.
smiles | measurement | setting | value
CCCc1cc(=O)[nH]c(Nc2cc(Cl)cc(Cl)c2)n1 | AC50 | [1] | 3.16 µM [falling, full curve]
O=C(O)c1ccc(/C=N\N=C2c3ccccc3-c3ccccc32)cc1 | AC50 | [1] | 0.0251 µM [falling, full curve]
COc1ccccc1N1CCN(C(=O)c2nn(C)c3c2CS(=O)(=O)c2ccccc2-3)CC1 | AC50 | [1] | 6.31 µM [falling, partial curve]
CCn1cc2nc(SCc3cc(C)ccc3C)n(Cc3ccc(Cl)cc3)c(=O)c2n1 | AC50 | [1] | 5.01 µM [falling, full curve]
